Laboratory results published in patent publication US12190997B2, “Genetically altered LysM receptors with altered agonist specificity and affinity” (Aarhus Universitet, priority 2018, dated 2025).
pKd: −log10 of the molar value. For at least one compound, name, drawing or mass did not settle the structure.

Sequences of proteins named here, by UniProt entry; tags and fusion partners are left off.
UniProt D3KTZ8, entry or part of it: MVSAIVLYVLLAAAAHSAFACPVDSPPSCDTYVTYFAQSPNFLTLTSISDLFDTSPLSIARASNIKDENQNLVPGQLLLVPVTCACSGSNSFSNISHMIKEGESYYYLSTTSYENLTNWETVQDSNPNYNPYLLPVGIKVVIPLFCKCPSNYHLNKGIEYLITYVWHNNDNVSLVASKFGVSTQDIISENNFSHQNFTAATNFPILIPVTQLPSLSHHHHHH

Target: LjLYS11 ectodomain (Lotus japonicus, UniProt D3KTZ8)
Assay: BLI binding of LjLYS11 ectodomain to ligands
Settings: FIG. 15C
Method: LjLYS11 ectodomain production and purification: The LjLYS11 ectodomain (residues 26-234; SEQ ID NO:60) was codon-optimized for insect cell expression (Genscript, Piscataway, USA) and cloned into the pOET4 baculovirus transfer vector (Oxford Expression Technologies). The native LjLYS11 signal peptide was replaced with the gp64 signal peptide (SEQ ID NO:59) to facilitate secretion and a hexa-histidine (6×His; SEQ ID NO:61) tag was added to the C-terminus (LjLYS11-ecto (26-234), N-term gp64, C-term 6His=SEQ ID NO:56). Recombinant baculoviruses were produced in Sf9 cells (Spodoptera frugiperda) using the FlashBac Gold kit (Oxford Expression technologies) according to the manufacturer's instructions with Lipofectin (ThermoFisher Scientific) as a transfection reagent. Protein expression was performed as follows. […]
Biolayer interferometry (BLI): Binding of LjLYS11 ectodomain and domain-swapped versions of LjLYS11 ectodomain to ligands was measured on an Octet RED 96 system (Pall ForteBio). […] Equilibrium dissociation constants derived from the steady-state were determined by applying a non-linear regression (one site, specific binding) to the response at equilibrium plotted against the protein concentration. Kinetic parameters were determined by non-linear regression (association followed by dissociation) on the subtracted data. […]

## CC(=O)N[C@H]1[C@H](O[C@H]2[C@H](O)[C@@H](NC(C)=O)[C@H](O[C@H]3[C@H](O)[C@@H](NC(C)=O)C(O)O[C@@H]3CO)O[C@@H]2CO)O[C@H](CO)[C@@H](O[C@@H]2O[C@H](CO)[C@@H](O[C@@H]3O[C@H](CO)[C@@H](O)[C@H](O)[C@H]3NC(C)=O)[C@H](O)[C@H]2NC(C)=O)[C@@H]1O (stereo partly shown) [CO5]
  pKd: 4.94
